Primary screen of a compound library

Amino acid sequences for entries named in this document (tags omitted). Residues count along the entry.
UniProt Q8IDJ8, 1-583: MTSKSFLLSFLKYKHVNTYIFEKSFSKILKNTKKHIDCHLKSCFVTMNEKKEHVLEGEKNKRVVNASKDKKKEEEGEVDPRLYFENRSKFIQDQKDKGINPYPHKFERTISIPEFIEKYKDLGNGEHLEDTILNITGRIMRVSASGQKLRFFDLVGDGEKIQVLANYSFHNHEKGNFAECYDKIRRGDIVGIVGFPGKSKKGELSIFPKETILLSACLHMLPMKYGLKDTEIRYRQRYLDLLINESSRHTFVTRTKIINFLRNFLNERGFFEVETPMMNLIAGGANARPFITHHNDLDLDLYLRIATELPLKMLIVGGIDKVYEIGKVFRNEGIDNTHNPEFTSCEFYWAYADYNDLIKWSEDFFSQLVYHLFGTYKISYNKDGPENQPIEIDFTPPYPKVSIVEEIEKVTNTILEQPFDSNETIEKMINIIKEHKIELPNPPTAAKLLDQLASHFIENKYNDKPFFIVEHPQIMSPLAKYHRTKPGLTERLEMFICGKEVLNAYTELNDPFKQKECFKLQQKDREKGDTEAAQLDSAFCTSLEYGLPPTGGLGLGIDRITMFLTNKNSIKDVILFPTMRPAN
UniProt I6X8D2, whole entry: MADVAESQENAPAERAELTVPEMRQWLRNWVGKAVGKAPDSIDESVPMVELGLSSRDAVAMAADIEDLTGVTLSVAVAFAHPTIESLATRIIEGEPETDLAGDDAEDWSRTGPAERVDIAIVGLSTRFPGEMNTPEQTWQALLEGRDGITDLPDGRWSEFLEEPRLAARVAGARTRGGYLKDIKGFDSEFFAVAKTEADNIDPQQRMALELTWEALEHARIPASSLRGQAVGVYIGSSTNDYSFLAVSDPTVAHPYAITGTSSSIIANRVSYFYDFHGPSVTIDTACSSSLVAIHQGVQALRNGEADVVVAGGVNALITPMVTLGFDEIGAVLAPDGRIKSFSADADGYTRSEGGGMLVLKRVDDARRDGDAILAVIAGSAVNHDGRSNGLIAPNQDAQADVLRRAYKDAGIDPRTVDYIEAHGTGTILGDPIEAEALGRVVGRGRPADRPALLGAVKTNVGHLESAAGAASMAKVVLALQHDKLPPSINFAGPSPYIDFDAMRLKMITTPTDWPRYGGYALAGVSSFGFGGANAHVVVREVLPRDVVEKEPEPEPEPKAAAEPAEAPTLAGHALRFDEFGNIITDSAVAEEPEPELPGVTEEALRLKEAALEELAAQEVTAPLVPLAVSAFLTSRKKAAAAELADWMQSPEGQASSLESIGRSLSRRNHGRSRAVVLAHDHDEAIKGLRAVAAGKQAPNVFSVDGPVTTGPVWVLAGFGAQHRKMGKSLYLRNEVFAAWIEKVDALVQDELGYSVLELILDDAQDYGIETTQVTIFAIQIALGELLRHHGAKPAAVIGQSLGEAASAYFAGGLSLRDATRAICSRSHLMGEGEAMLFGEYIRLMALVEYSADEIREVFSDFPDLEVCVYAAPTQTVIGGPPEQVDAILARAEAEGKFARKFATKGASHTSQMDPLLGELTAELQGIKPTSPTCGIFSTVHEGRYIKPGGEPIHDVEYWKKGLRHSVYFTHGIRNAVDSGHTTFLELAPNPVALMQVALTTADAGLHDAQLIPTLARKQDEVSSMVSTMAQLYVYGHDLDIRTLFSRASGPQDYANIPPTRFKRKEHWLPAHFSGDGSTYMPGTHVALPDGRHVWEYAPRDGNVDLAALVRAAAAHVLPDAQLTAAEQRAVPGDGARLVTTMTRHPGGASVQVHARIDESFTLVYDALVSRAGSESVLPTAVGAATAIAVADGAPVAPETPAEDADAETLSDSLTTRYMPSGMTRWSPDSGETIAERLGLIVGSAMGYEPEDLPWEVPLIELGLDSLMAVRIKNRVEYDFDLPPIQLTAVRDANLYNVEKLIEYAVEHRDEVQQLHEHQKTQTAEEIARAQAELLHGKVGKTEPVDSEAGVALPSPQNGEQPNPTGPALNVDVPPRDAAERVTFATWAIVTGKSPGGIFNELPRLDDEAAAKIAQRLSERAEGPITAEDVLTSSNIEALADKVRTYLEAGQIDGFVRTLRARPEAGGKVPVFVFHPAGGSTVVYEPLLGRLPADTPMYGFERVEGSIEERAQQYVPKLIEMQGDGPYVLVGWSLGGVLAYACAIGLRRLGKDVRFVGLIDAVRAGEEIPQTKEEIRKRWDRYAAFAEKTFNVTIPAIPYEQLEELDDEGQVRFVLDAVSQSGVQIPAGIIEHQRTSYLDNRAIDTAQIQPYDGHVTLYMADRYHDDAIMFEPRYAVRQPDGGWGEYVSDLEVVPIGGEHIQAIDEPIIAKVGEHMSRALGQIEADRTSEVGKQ
UniProt P9WNZ1, whole entry: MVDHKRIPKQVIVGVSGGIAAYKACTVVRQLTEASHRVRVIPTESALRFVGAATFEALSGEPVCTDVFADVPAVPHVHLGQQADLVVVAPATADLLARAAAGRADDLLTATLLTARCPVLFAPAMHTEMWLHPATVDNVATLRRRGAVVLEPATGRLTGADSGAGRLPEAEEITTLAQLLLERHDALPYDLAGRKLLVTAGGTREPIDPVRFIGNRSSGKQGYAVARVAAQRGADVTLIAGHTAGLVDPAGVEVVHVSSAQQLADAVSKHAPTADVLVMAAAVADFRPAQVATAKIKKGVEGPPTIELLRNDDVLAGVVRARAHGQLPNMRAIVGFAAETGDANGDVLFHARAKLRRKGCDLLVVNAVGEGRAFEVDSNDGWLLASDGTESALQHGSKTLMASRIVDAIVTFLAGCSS
UniProt Q4DA54, 1-478: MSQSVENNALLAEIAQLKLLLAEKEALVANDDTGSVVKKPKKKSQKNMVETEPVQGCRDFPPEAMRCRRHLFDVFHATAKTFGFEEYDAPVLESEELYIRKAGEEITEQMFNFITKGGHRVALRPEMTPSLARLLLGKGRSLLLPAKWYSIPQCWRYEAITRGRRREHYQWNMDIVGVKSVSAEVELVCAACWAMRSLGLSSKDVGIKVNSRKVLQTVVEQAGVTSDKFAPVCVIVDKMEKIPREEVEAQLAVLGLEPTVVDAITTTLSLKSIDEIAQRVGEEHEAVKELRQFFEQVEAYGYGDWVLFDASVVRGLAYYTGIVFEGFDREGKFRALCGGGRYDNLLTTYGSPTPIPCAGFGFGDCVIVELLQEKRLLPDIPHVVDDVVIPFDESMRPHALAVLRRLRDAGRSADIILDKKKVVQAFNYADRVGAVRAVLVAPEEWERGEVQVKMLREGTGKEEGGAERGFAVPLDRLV
UniProt P9WFT3, whole entry: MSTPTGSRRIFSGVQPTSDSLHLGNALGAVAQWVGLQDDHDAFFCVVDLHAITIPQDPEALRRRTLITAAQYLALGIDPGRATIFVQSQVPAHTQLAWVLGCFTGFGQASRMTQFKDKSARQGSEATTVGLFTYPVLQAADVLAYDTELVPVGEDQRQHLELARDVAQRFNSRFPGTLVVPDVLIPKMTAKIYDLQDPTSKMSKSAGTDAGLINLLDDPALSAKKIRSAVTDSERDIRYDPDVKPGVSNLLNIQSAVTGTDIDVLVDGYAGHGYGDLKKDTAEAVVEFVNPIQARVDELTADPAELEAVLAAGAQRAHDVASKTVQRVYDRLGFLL
UniProt P9WPC5, whole entry: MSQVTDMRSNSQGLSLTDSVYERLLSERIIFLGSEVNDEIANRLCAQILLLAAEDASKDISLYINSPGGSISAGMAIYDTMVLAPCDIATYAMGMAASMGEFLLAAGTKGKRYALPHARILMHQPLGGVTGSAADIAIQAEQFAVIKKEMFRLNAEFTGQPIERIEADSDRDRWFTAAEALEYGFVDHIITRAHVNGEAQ
UniProt P9WPC3, whole entry partner: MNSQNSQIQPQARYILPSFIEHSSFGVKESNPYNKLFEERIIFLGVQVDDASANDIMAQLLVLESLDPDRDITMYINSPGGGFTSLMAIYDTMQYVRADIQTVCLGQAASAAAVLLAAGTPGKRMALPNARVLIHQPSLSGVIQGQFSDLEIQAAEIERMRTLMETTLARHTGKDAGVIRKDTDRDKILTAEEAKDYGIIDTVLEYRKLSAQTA

Source: ChEMBL document CHEMBL3988442, “University of Dundee, Small-Polar-MMV Screening Library” (2021).

PfKRS1: 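Lysine-tRNA ligase, Plasmodium falciparum 3D7 (UniProt Q8IDJ8). Enzyme assay of the cytosolic lysyl-tRNA synthetase in 384-well plates, read by luminescence. Compounds at 30 µM. Direction is inferred from only a few compounds that gave an IC50; most scored high, so higher reads as stronger inhibition. About 69,000 compounds were tested under these conditions; 0.071% (about 49) showed 50% or more at least once.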
Pks13 thioesterase: 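Enzyme assay of the thioesterase domain of polyketide synthase 13; the read-out is not stated. Target: Polyketide synthase Pks13, Mycobacterium tuberculosis (UniProt I6X8D2). Tested at 30 µM. The record gives no direction; the compounds picked for IC50 retests had high values, so higher reads as stronger inhibition. Size under these conditions: about 67,000 compounds, about 300 of them at 50% or above in at least one test.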
CoaBC: 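Coenzyme A biosynthesis protein CoaBC, Mycobacterium tuberculosis (UniProt P9WNZ1). Enzyme assay of CoaBC with a phosphate dye (Biomol Green) read at 650 nm. Tested at 30 µM. Higher reads as stronger inhibition, judged from the few compounds that gave an IC50. Most strong results did not repeat in a second test. About 67,000 compounds were tested under these conditions; 0.06% (about 40) showed 50% or more at least once.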
TcHisRS: 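Enzyme assay of histidyl-tRNA synthetase; the read-out is not stated. Target: Histidine-tRNA ligase, Trypanosoma cruzi CL Brener (UniProt Q4DA54). Concentration: 30 µM. The record gives no direction; compounds that gave an IC50 in retests scored well above the rest, so higher reads as stronger inhibition. Size under these conditions: about 69,000 compounds, about 31 of them at 50% or above in at least one test.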
MtTrpRS: 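Tryptophan-tRNA ligase, Mycobacterium tuberculosis (UniProt P9WFT3). Enzyme assay of tryptophanyl-tRNA synthetase; the read-out is not stated. Tested at 10 µM. Direction is not recorded; retested compounds ran higher, which suggests that high means inhibition. Of about 65,000 compounds tested this way, about 64 (0.098%) reached 50% or more in at least one test.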
ClpP1P2: 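Protease assay of ClpP1P2, read by the AMC dye that it sets free. Target: ClpP1P2, Mycobacterium tuberculosis (UniProt P9WPC5 and UniProt P9WPC3). Compounds at 50 µM. Higher reads as stronger inhibition, judged from the few compounds that gave an IC50. Most other retested compounds had strongly negative values. About 69,000 compounds were tested under these conditions; 0.015% (about 10) showed 50% or more at least once.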

Results are given as percent effect. The record does not define 0% and 100%; most values in the screen are far below 50% and negative numbers occur (in some assays of this library far below -100). The compounds are a random part of those screened.

- C1CCC(CNC2CCCN(Cc3noc(C4CC4)n3)C2)C1 (centres undefined) : PfKRS1: 1.41%; Pks13 thioesterase: -6.73%; CoaBC: -1.148%; TcHisRS: 4.103%; MtTrpRS: 0%; ClpP1P2: 11.62%
- O=C(O)C1(Cc2cccc(-c3ccc(F)c(F)c3)c2)CCOCC1 : PfKRS1: 3.537%; Pks13 thioesterase: -6.201%; CoaBC: -3.611%; TcHisRS: -5.946%; MtTrpRS: 4.766%; ClpP1P2: -2.851%
- Cc1cc(C)n(Cc2ccc(C(=O)N3CCOCC3(C)C)cc2)n1 : PfKRS1: -2.597%; Pks13 thioesterase: -21.33%; CoaBC: -6.352%; TcHisRS: 4.255%; MtTrpRS: -1.625%; ClpP1P2: 7.135%
- Cc1nc(CNC(=O)NC2CCN(c3ncccn3)CC2)cs1 : PfKRS1: 3.866%; Pks13 thioesterase: -14.23%; CoaBC: 9.208%; TcHisRS: 5.025%; MtTrpRS: 0.05889%; ClpP1P2: 9.134%
- CCN(Cc1nc2c(cnn2C)c(=O)[nH]1)Cc1ccco1 : PfKRS1: 2.284%; Pks13 thioesterase: -5.539%; CoaBC: -4.258%; TcHisRS: 4.598%; MtTrpRS: -1.655%; ClpP1P2: 7.153%
- COc1ccc(CN(CC2CCCO2)c2nc3c(s2)c(C)nn3C)cc1 (centres undefined) : PfKRS1: 1.497%; Pks13 thioesterase: -25.87%; CoaBC: 4.567%; TcHisRS: 6.329%; MtTrpRS: -5.594%; ClpP1P2: 3.385%
- CN(C(=O)CCc1cccs1)C1CCCN(C2Cc3ccccc3C2)C1 (centres undefined) : PfKRS1: 4.4%; Pks13 thioesterase: -10.87%; CoaBC: 2.051%; TcHisRS: 9.548%; MtTrpRS: -1.522%; ClpP1P2: -12.59%
- COCc1nc(CNc2cccc(-c3ncon3)c2)cs1 : PfKRS1: 1.134%; Pks13 thioesterase: -31.82%; CoaBC: 3.186%; TcHisRS: 9.524%; MtTrpRS: -1.975%; ClpP1P2: 1.49%
- COCCc1noc(CN(C)c2cc(C)ncn2)n1 : PfKRS1: -3.447%; Pks13 thioesterase: -11.27%; CoaBC: 7.661%; TcHisRS: 0.8403%; MtTrpRS: 3.511%; ClpP1P2: -4.931%
- CC(C)S(=O)(=O)C(C)C(=O)Nc1ccc2oc(C3CC3)nc2c1 (centres undefined) : PfKRS1: 4.973%; Pks13 thioesterase: -44.11%; TcHisRS: 1.911%; MtTrpRS: -1.312%; ClpP1P2: 8.07%
- CCC(NC(=O)NCc1cccc(N(C)C)n1)c1nccs1 (centres undefined) : PfKRS1: 5.075%; Pks13 thioesterase: 27.73%; CoaBC: 3.418%; TcHisRS: 1.242%; MtTrpRS: 5.559%; ClpP1P2: -11%
- c1ccc(Cc2noc(CNC3CCc4ncnn4C3)n2)cc1 (centres undefined) : PfKRS1: 3.687%; Pks13 thioesterase: -10.43%; CoaBC: 6.408%; TcHisRS: 3.448%; MtTrpRS: -3.207%; ClpP1P2: 10.29%
- Cc1c(C(=O)OCC2CC(=O)N(c3ccccc3)C2)cnn1C(C)C (centres undefined) : PfKRS1: 4.826%; Pks13 thioesterase: -5.413%; CoaBC: 3.797%; TcHisRS: 7.389%; MtTrpRS: -4.128%; ClpP1P2: -16.33%
- CC(C)c1n[nH]c(C2CN(C(=O)c3ccnc(C4CC4)n3)CCO2)n1 (centres undefined) : PfKRS1: -0.6502%; Pks13 thioesterase: -21.1%; CoaBC: 1.305%; TcHisRS: 2.041%; MtTrpRS: 11.16%; ClpP1P2: -30.08%
- COc1cc(C(=O)N2CCCC(CNS(C)(=O)=O)C2)ccc1C (centres undefined) : PfKRS1: -0.3599%; Pks13 thioesterase: -27.51%; CoaBC: 7.334%; TcHisRS: 5.523%; MtTrpRS: 14.41%; ClpP1P2: -16.81%
- COC(C)c1cccc(NCc2cccs2)c1 (centres undefined) : PfKRS1: 1.485%; Pks13 thioesterase: -26.33%; CoaBC: 3.24%; TcHisRS: 3.061%; MtTrpRS: 1.511%; ClpP1P2: -9.13%
- CCc1nc(-c2ccc(NC(=O)N3CCCC3)cc2)no1 : PfKRS1: 4.343%; Pks13 thioesterase: -11.66%; CoaBC: 1.519%; TcHisRS: 8.537%; MtTrpRS: -6.612%; ClpP1P2: -9.73%
- CCc1nnc2n1CCN(Cc1ncc(-c3ccccc3)o1)C2 : PfKRS1: -1.908%; Pks13 thioesterase: -19.28%; CoaBC: 5.703%; TcHisRS: 1.183%; MtTrpRS: 0.565%; ClpP1P2: -17.2%
- O=C(c1n[nH]c2c1CN(C1CCOC1)CC2)N1CCCC1 (centres undefined) : PfKRS1: 2.966%; Pks13 thioesterase: -25.97%; CoaBC: 4.505%; TcHisRS: 5.825%; MtTrpRS: -4.651%; ClpP1P2: 8.183%
- CC(=O)N(C)c1nc(CN2CCN(c3nccs3)CC2)cs1 : PfKRS1: -0.7069%; Pks13 thioesterase: -9.101%; CoaBC: 3.659%; TcHisRS: -25.49%; MtTrpRS: 0.7524%; ClpP1P2: -5.757%
- CCC(O)CN1CCN(C(=O)c2cc(Cl)cc3cccnc23)CC1 (centres undefined) : PfKRS1: -1.091%; Pks13 thioesterase: -31.87%; CoaBC: -1.316%; TcHisRS: 5.572%; MtTrpRS: 19.25%; ClpP1P2: -15.53%

Some entries from above, unchanged:

structure	PfKRS1	Pks13 thioesterase	CoaBC	TcHisRS	MtTrpRS	ClpP1P2
COC(C)c1cccc(NCc2cccs2)c1 (centres undefined)	1.485	-26.33	3.24	3.061	1.511	-9.13
CC(C)c1n[nH]c(C2CN(C(=O)c3ccnc(C4CC4)n3)CCO2)n1 (centres undefined)	-0.6502	-21.1	1.305	2.041	11.16	-30.08
C1CCC(CNC2CCCN(Cc3noc(C4CC4)n3)C2)C1 (centres undefined)	1.41	-6.73	-1.148	4.103	0	11.62